Reference: PMC9969397, “Rhenium(V) Complexes as Cysteine-Targeting Coordinate Covalent Warheads” (Journal of Medicinal Chemistry, 2023)

Test: Interactions with amino acids (HPLC): cysteine derivative

ReO(2,2′-thiodiethanethiol)(water) Trifluoromethanesulfonate [Compound 3]
reactivity with tert-butoxycarbonyl-L-cysteine methyl ester (equimolar, water, 37 °C, 24 h): full conversion | reactivity with tert-butoxycarbonyl-L-cysteine methyl ester (incubation 4 h): complete conversion
